Measured data: PubChem BioAssay AID1259308 (NCATS, 2017)
In all, the deposit lists about 59,000 reagents; shown is an unselected part. About 1,510 of them (2.6%) were called active. 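Calls use total luciferase alone and ignore viability, so some active siRNAs may act by altering cell number.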 The numbers tell different reagents against one gene apart.

- Screen: 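Knock-downs that increase output of a recombinant reporter protein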 (primary screen)
- Cells: human HEK293 embryonic kidney cells stably expressing firefly luciferase (HEK-CMV-Luc2-Hygro)
- Knock-down reagent: single siRNA against human genes, 0.8 pmol siRNA per well
- Duration: 72 h
- Read-out: 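Luciferase light (ONE-Glo) measured on one replicate plate set and viability (CellTiter-Glo) on the other, scaled to a negative control siRNA, with robust z-scores and luciferase per cell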
- Scale: total luciferase, z-score and total luciferase, % of control: higher = more reporter protein produced; luciferase per cell, z-score: higher = more reporter output per viable cell; viable cells, % of control: higher = more viable cells
- Active means: 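An siRNA counts as active if its total luciferase robust z-score exceeds 3; genes with two or more such siRNAs out of three were retested with fresh siRNAs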
- Calls: active = raised luciferase; inactive = no rise

The opening 2 records, ahead of the listing:
Gene	reagent no.	total luciferase, z-score	total luciferase, % of control	luciferase per cell, z-score	viable cells, % of control	call
ZNF322P1	1	-2.48	32.6	-1.63	56	inactive
ZNF322P1	2	-2.2	38.1	-2.7	86.6	inactive

The list itself, from the start:
Gene	reagent no.	total luciferase, z-score	total luciferase, % of control	luciferase per cell, z-score	viable cells, % of control	call
ZNF322P1	1	-2.48	32.6	-1.63	56	inactive
ZNF322P1	2	-2.2	38.1	-2.7	86.6	inactive
ZNF322P1	3	-0.107	79.8	-0.247	95.1	inactive
MAGEB6B	1	2.74	136	1.64	98.9	inactive
MAGEB6B	2	-0.923	63.5	-0.696	85.3	inactive
MAGEB6B	3	-1.04	61.2	-0.998	88.9	inactive
C1DP3	1	-1.27	56.7	-0.798	78.2	inactive
C1DP3	2	-1.41	53.8	-1.33	85.4	inactive
C1DP3	3	-0.638	69.2	0.291	71.6	inactive
SPATA33	1	0.446	90.8	0.233	95.4	inactive
SPATA33	2	-0.135	79.2	0.21	83.7	inactive
SPATA33	3	-0.0951	80	-0.0818	91.3	inactive
ZNF804A	1	0.27	87.3	-0.109	100	inactive
ZNF804A	2	0.32	88.2	0.423	88.2	inactive
ZNF804A	3	-0.266	76.6	-0.893	108	inactive
CICP18	1	-0.517	71.6	1.11	59.7	inactive
CICP18	2	0.595	93.7	-0.489	119	inactive
CICP18	3	-0.597	70	-1.28	110	inactive
CHCHD5	1	-0.759	66.8	-0.984	96.7	inactive
CHCHD5	2	2.93	140	3.32	65.3	inactive
CHCHD5	3	0.104	84	0.196	89.1	inactive
CD300LB	1	-1.55	51.1	-1.79	91.3	inactive
CD300LB	2	-0.131	79.3	0.384	80.1	inactive
CD300LB	3	-0.511	71.7	0.749	65.8	inactive
PRX	1	-0.782	66.3	-1.03	97.1	inactive
PRX	2	-0.505	71.8	-0.0376	81.1	inactive
PRX	3	-0.326	75.4	-0.342	92.2	inactive
KRT81	1	-0.739	67.2	-0.91	95.4	inactive
KRT81	2	-1.19	58.2	-2.1	113	inactive
KRT81	3	0.691	95.6	0.0979	104	inactive
IRF3	1	-0.0727	80.4	-0.459	101	inactive
IRF3	2	0.368	89.2	0.957	77.5	inactive
IRF3	3	-0.321	75.5	-0.0792	86.1	inactive
MUC6	1	-0.328	75.4	0.595	72	inactive
MUC6	2	0.869	99.2	0.216	105	inactive
MUC6	3	-0.173	78.4	-0.503	100	inactive
MELTF	1	-0.213	77.6	-0.708	105	inactive
MELTF	2	-0.253	76.9	-0.758	105	inactive
MELTF	3	0.291	87.7	0.656	82.4	inactive
CDC42	1	-1.44	53.2	-1.35	84.8	inactive
CDC42	2	-0.392	74.1	0.212	78.3	inactive
CDC42	3	-0.249	76.9	-0.327	93.7	inactive
OGA	1	1.54	113	1.32	89	inactive
OGA	2	-0.989	62.2	-1.41	101	inactive
OGA	3	-0.105	79.8	0.869	70.9	inactive
MCRS1	1	-0.338	75.2	-0.842	105	inactive
MCRS1	2	-0.487	72.2	-0.763	98.6	inactive
MCRS1	3	1.11	104	1.71	74.1	inactive
IGSF6	1	-0.432	73.3	0.593	70.1	inactive
IGSF6	2	0.229	86.4	1.41	66.7	inactive
IGSF6	3	0.333	88.5	-0.663	118	inactive
TGM3	1	1.45	111	0.328	113	inactive
TGM3	2	-0.43	73.3	-0.729	99.3	inactive
TGM3	3	1.15	105	0.712	97.1	inactive
RHEB	1	-0.51	71.7	-0.94	103	inactive
RHEB	2	-0.0751	80.4	-0.195	94.6	inactive
RHEB	3	-0.766	66.7	-1.01	97.2	inactive
